Assay results as given in the supplement of paper PMC10338343.
± gives the standard deviation. The entries are a selection whose mix differs from that of the whole data set. Many entries were measured with a wide error. The list shows a part of the results.

Legend:
[1] = system: MILI (PIWIL2) piRISC loaded with L1MC piRNA (26 nt); assay: pre-steady-state target cleavage rate (min^-1); higher = faster piRNA-guided slicing of the target; settings: guide: L1MC piRNA 5'p-UAACUAAAUACUAUGCAAGCUGUAGG; auxiliary factor: none (no GTSF1)
In short: (§1)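 The pre-steady-state cleavage rate was derived from a burst-and-steady-state fit of Cleave-'n-Seq data. For these assays, 1 nM active affinity-purified piRISC loaded with a single synthetic guide was mixed with […] a transcribed, DNA-blocked target RNA library in HEPES–potassium acetate buffer at 33 °C, with or without 500 nM GTSF1 partner protein, for 0–8 or 0–960 min. Sequencing counts of uncleaved targets were normalised to depth and to weakly complementary targets, and k3 was capped at 0.0001 min^-1 after three trials were pooled.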

[2] = system: MIWI (PIWIL1) piRISC loaded with L1MC piRNA (30 nt); assay: as above; settings: guide: L1MC piRNA 5'p-UAACUAAAUACUAUGCAAGCUGUAGGUCCU; auxiliary factor: none (no GTSF1)
In short: as §1

[3] = system: EfPiwi piRISC loaded with L1MC piRNA (26 nt); assay: pre-steady-state target cleavage rate (min^-1); guide: L1MC piRNA 5'p-UAACUAAAUACUAUGCAAGCUGUAGG; MIWI and MILI are mouse PIWI proteins and EfPiwi is from a freshwater sponge; tags in brackets are library labels; higher = faster piRNA-guided slicing of the target
In short: as §1

[4] = auxiliary factor: 500 nM Ephydatia muelleri Gtsf1
[5] = auxiliary factor: none (no Gtsf1)

Row | Sequence | pre-steady-state target cleavage rate [1] | pre-steady-state target cleavage rate [2] | pre-steady-state target cleavage rate [3, 4] | pre-steady-state target cleavage rate [3, 5]
1 | UCCUGGUACAGCUUCGAUAGUAUUUAGAAA | 0.00122 ± 0.0053 | 0.00108 ± 0.0067 | 0.0034 ± 0.0036 | –
2 | UCCUGGAUGUCGAACGAUAUUAUUUAGUUA | 0.000125 ± 0.024 | 0.000253 ± 0.015 | 0.000154 ± 0.017 | –
3 | UCCUCCUACAGCUUGGUAAGUAUUUACAAA | 0.000601 ± 0.0078 | 0.000403 ± 0.009 | – | 0.000543 ± 0.0089
4 | UCCUGGAUGUCCUUCCAUAGUAUUUACUUA | 0.000127 ± 0.049 | 0.000459 ± 0.015 | 0.000808 ± 0.0078 | –
5 | UCCUGGAUGAGCUUGCAUUCUAUUUACAAA | 0.00053 ± 0.014 | 0.000261 ± 0.015 | 0.000385 ± 0.0086 | –
6 | UCCUCCUACAGGUUGCAUAGUAUUUUCAAA | 0.00107 ± 0.0043 | 0.000983 ± 0.0048 | 0.00306 ± 0.0021 | –
7 | UCCUGGAUGACGAUGCAUAGUAUUUACAAA | 0.000526 ± 0.016 | 0.000709 ± 0.012 | 0.00111 ± 0.0044 | –
8 | UCCUGGAUGUCGAUGCAUAGUAUUUCGUUA | 0.00121 ± 0.0062 | 0.00115 ± 0.0067 | 0.00145 ± 0.0029 | –
9 | UCCUGGAUCAGCUUGCAUAGUAAAAACAAA | 0.00134 ± 0.0049 | 0.00165 ± 0.0056 | – | 0.000182 ± 0.021
10 | UCCUGCUACAGCUACGAUAGUAUUUAGUAA | 0.00108 ± 0.0051 | 0.000835 ± 0.006 | 0.00129 ± 0.0066 | –
11 | UCCUGGAUCAGCUUGCAUAGUUAAUUCAAA | 0.000934 ± 0.0058 | 0.00105 ± 0.0046 | 0.000318 ± 0.011 | –
12 | UCCUCCUACAGCUUGCAUUGUAUUUACAAA | 0.00071 ± 0.0066 | 0.00148 ± 0.0034 | 0.00314 ± 0.003 | –
13 | UCCUGGUACAGCAUGCAUAGUAUUUUCAAA | 0.000943 ± 0.0089 | 0.000373 ± 0.011 | 0.000943 ± 0.0045 | –
14 | UCCUGGUACAGCAACCAUAGUAUUUUCAAA | 0.000883 ± 0.0059 | 0.000626 ± 0.011 | 0.000386 ± 0.0071 | –
15 | UCCUCCUACAGCAACCAUAGUAUUUAGAAA | 0.00066 ± 0.0081 | 0.000673 ± 0.0097 | 0.00166 ± 0.0044 | –
16 | UCCUCCUACAGCUUGCAUCAGUAUUUAGUUA | 0.00123 ± 0.0046 | 0.000884 ± 0.0082 | 0.00234 ± 0.0029 | –
17 | UCCUGGAUGAGCUUGCUUAGUAUUUACAAA | 0.00157 ± 0.0037 | 0.00188 ± 0.0033 | 0.00267 ± 0.0045 | –
18 | UCCUGGUACAGCUUGCAUAGAUUUAGUUA | 0.00204 ± 0.0037 | 0.00108 ± 0.0072 | 0.0024 ± 0.0037 | –
19 | UCCUGCAACAGCUUGCAUAGUAUUUUCAAA | 0.000783 ± 0.012 | 0.00248 ± 0.0042 | 0.00269 ± 0.0017 | –
20 | UCCUGGAUGUCGUUGCACUAGUAUUUAGUUA | 0.000785 ± 0.008 | 0.000819 ± 0.011 | 0.000256 ± 0.013 | –
21 | UCCUGGAUGUCGAACCAUAGAUAUUAGUUA | 0.0002 ± 0.021 | 0.000195 ± 0.04 | < 0.0001 | –
22 | UCCUGCUACAGCUUGCAUAGUAUUUUCUAA | 0.00153 ± 0.0042 | 0.00222 ± 0.0041 | – | 0.000107 ± 0.048
23 | UCCUGGUACAGCUUGCAAUCUAUUUAGUAA | 0.00179 ± 0.0055 | 0.00184 ± 0.0043 | – | 0.000705 ± 0.013
24 | UCCUGGAUGUCGUUGCAUUCAAUUUAGUUA | 0.000402 ± 0.013 | 0.000386 ± 0.016 | 0.000162 ± 0.023 | –

Quoted from the listing:
pre-steady-state target cleavage rate [3, 5], UCCUGCUACAGCUUGCAUAGUAUUUUCUAA is entered as 0.000107 ± 0.048
pre-steady-state target cleavage rate [1], UCCUCCUACAGCUUGGUAAGUAUUUACAAA is entered as 0.000601 ± 0.0078

Going on with the list:

Row | Sequence | pre-steady-state target cleavage rate [1] | pre-steady-state target cleavage rate [2] | pre-steady-state target cleavage rate [3, 4] | pre-steady-state target cleavage rate [3, 5]
25 | UCCUGGAACAGCUUGCAUAGUAUUUAUUA | 0.00131 ± 0.0054 | 0.00253 ± 0.0034 | 0.00302 ± 0.003 | –
26 | UCCUGGAUGACGUUGCAUAGUAUUUAGUAA | 0.00223 ± 0.0048 | 0.00268 ± 0.003 | 0.00296 ± 0.0042 | –
27 | UCCUGGAUCUGCUUGCAUAGUAUUUUCAAA | 0.00109 ± 0.0045 | 0.00176 ± 0.0027 | 0.00116 ± 0.0056 | –
28 | UCCUGGAACAGCUUGCAUACAUUUUACAAA | 0.000223 ± 0.012 | 0.000625 ± 0.0089 | 0.000193 ± 0.033 | –
29 | UCCUGGAUGUCGAAGCAUAGUCUUUAGUUA | 0.00222 ± 0.0026 | 0.00091 ± 0.0065 | 0.000787 ± 0.0059 | –
30 | UCCUCCUACACGAUGCAUAGUAUUUUCAAA | 0.00116 ± 0.0056 | 0.000662 ± 0.011 | 0.0015 ± 0.0045 | –
31 | UCCUGGUACAGCUUGCAUACUAUUUUCAAA | 0.00138 ± 0.0065 | 0.000819 ± 0.0054 | 0.000839 ± 0.0041 | –
32 | UCCUGGAUCAGCAAGCAUAGUAUUUACAAA | 0.000795 ± 0.0078 | 0.000912 ± 0.0061 | 0.000607 ± 0.0043 | –
33 | UCCUGCUACAGCUUGCUAUGUAUUUAGAAA | 0.00113 ± 0.0041 | 0.00057 ± 0.0086 | 0.000921 ± 0.0076 | –
34 | UCCUGGAUCAGCAAGCAUAGUAUUUUCAAA | 0.00056 ± 0.0073 | 0.000752 ± 0.0091 | 0.00165 ± 0.0038 | –
35 | UCCUGCUACAGCUACCAUAGUAUUUUCAAA | 0.000858 ± 0.0055 | 0.000561 ± 0.013 | 0.000459 ± 0.0095 | –
36 | UCCUCCUACAGCUUGCAUAGUAUAUUCAAA | 0.00148 ± 0.0033 | 0.000309 ± 0.0066 | 0.00316 ± 0.0027 | –
37 | UCCUGGAUGUGCUUGCAUUCUAUUUAGUUA | 0.00115 ± 0.0053 | 0.00162 ± 0.0045 | 0.000449 ± 0.0068 | –
38 | UCCUGGAUCAGCUUGCAUAGUAAAAAGUAA | 0.00121 ± 0.0049 | 0.00162 ± 0.0048 | 0.00268 ± 0.0047 | –
39 | UCCUGCUACAGCUAGCAUAGUAUUUUCAAA | 0.000623 ± 0.01 | 0.000702 ± 0.01 | 0.00142 ± 0.0026 | –
40 | UCCUGCUACAGGUUGCAUAGUAUUUAGAAA | 0.00222 ± 0.0026 | 0.00192 ± 0.0036 | – | 0.000184 ± 0.023
41 | UCCUCCUACAGCUUCCAUAGUAUUUUCAAA | 0.000562 ± 0.01 | 0.000771 ± 0.0078 | 0.00228 ± 0.003 | –
42 | UCCUGGAUGUGCAUCCAUAGUAUUUAGUUA | 0.000786 ± 0.014 | 0.000314 ± 0.028 | 0.00128 ± 0.0073 | –
43 | UCCUGGAUGUCGAAGCAUAGUAUUUAGUCUA | 0.0007 ± 0.0081 | 0.000481 ± 0.011 | 0.000299 ± 0.012 | –
44 | UCCUGGAUGUGCUUGGAUAGUAUUUAGAAA | 0.000428 ± 0.0097 | 0.000918 ± 0.008 | 0.00162 ± 0.0038 | –
45 | UCCUGGUACAGGAAGCAUAGUAUUUACAAA | 0.000792 ± 0.008 | 0.00104 ± 0.0061 | 0.000691 ± 0.0047 | –
46 | UCCUGGAUGUCGAUGCUUAGUAUUUUGUUA | 0.000986 ± 0.0069 | 0.00036 ± 0.014 | 0.000312 ± 0.0095 | –
47 | UCCUGGUACAGCUUGCAUAGUUAUUAGAAA | 0.000867 ± 0.0078 | 0.00141 ± 0.0053 | 0.00121 ± 0.0027 | –
